Measurements published in patent US7179616B1, “Method for detecting phosphatidylserine on the surface of cells” (University of Notre Dame du Lac, priority 2002, dated 2007).
At least one compound was matched to its structure with a doubt left. Some results were stated once for a whole list of compounds, not compound by compound.

What was measured:
HL60 cells = test: Flow cytometry of camptothecin-treated HL60 cells; type: cell-based; conditions: for viable (PI negative) cells identified as apoptotic by the stain: HL60 cells treated with camptothecin 10 μM for 6 hours
[1] = cited from earlier work
[2] = cited from earlier work; remark: listed apart in the source

Compound	viable (PI negative) cells identified as apoptotic by the stain (HL60 cells)	binding of anionic peptide sequence relative to near-neutral sequence [1]	binding to monoanionic phosphate diesters such as dimethyphosphate [2]	viable (PI negative) cells that are apoptotic after treatment (HL60 cells; HL60 cells, 10 μM, 6 hours, detected with PSS-380 and annexin V-FITC)
O=[N+]([O-])[O-].O=[N+]([O-])[O-].O=[N+]([O-])[O-].O=[N+]([O-])[O-].[Zn+2].[Zn+2].c1ccc(CN(Cc2ccccn2)Cc2c3ccccc3c(CN(Cc3ccccn3)Cc3ccccn3)c3ccccc23)nc1 [PSS-380]	80–85%	about one thousand times more strongly	does not bind	
CC[C@@]1(O)C(=O)OCc2c1cc1n(c2=O)Cc2cc3ccccc3nc2-1 [camptothecin, reference compound]				80–85%
annexin V-FITC: annexin V labeled with the fluorescent dye fluorescein (Pharmingen stock solution)	80–85%			
